Source: PubChem BioAssay AID540276 (National Center for Advancing Translational Sciences (NCATS), 2011)
Values joined by “and” are separate entries in the source; they are usually repeats but may differ in a detail not shown here. Equal entries are not always repeated. About 5,400 (1.8%) of roughly 300,000 compounds were called active. Inconclusive means that the source gave no clear call. Such entries were picked first, then a sample of the others. Calls come from the whole dose curve; tested in HEK293 cells. Potencies beside an inconclusive call are fits to weak or partial responses and may not hold up.

assay: qHTS for inhibitors of binding or entry into cells for Marburg Virus; conditions: Marburg virus pseudotyped entry inhibition, cell reporter; series mostly up to 37.8 µM
Potency is the fitted concentration of half-maximal effect.

SMILES	Potency
CC(=O)c1sc(N/N=C\c2cccc(Br)c2)nc1C	inconclusive: 10 µM [inhibitor, partial curve, poor fit]
c1coc(CNc2nc(N3CCCCC3)nc3ccccc23)c1	inconclusive: 11.2 µM [inhibitor, partial curve, poor fit]
C/C(=N\N=C\c1ccc(N(C)C)cc1)c1cccc([N+](=O)[O-])c1	inconclusive: 4.47 µM [activator, partial curve, poor fit]
COc1cc(/C=N/NC(=O)c2ccc(O)cc2)ccc1Oc1ccc([N+](=O)[O-])cn1	inconclusive: 10 µM [activator, single point]
COCC(C)n1c(C)cc(C(=O)CSc2nnc(-c3ccco3)o2)c1C (stereo unspecified)	inactive
CN1CCc2c(sc(/N=C/c3cccs3)c2C(N)=O)C1	inactive
Cc1ccccc1CSCCNC(=O)CN(c1ccc2c(c1)OCO2)S(C)(=O)=O	inactive
Cc1ccc2c(c1)[nH]c1c(N3CCN(Cc4ccccc4)CC3)ncnc12	active: 16.4 µM
CCCCn1c(-c2nonc2N)nc2ccccc21	inconclusive: 25.9 µM [inhibitor, single point]
CCOCCCNC(=O)c1ccc2c(c1)N=C(CC)c1cc(Br)ccc1S2	inconclusive: 0.326 µM [inhibitor, full curve, poor fit]
O=C(Cc1c(F)c(F)c(F)c(F)c1F)Nc1nc(-c2ccccc2)cs1	inconclusive: 12.6 µM [inhibitor, single point]
CC1Cc2ccccc2N1C(=O)CSc1nc2ccccc2s1 (stereo unspecified)	inactive
CC(C)c1nc(SCC(=O)N2CCCCCC2)c2c(=O)n(C)c(=O)n(C)c2n1	inconclusive: 3.55 µM [inhibitor, partial curve, poor fit]
NNC(=O)CNC(c1ccccc1)c1cc(Br)ccc1NC(=O)c1cccc(Cl)c1 (stereo unspecified)	inconclusive: 20 µM [inhibitor, single point]
Cc1cc(=O)oc2c(C)c(OCC(=O)N3CCN(Cc4ccccc4)CC3)ccc12	inconclusive: 7.08 µM [inhibitor, full curve, poor fit]
O=C(CCl)N1CCN(S(=O)(=O)c2ccc3ccccc3c2)CC1	inconclusive: 20.6 µM [inhibitor, partial curve, poor fit]
O=C(CNc1ccccc1)N/N=C/c1cn(-c2ccccc2)nc1-c1ccccc1	inconclusive: 0.282 µM [inhibitor, partial curve, poor fit]
Cc1ccc(C)c(N(C)C(=O)C2CCN(S(=O)(=O)c3cccc4nsnc34)CC2)c1	inconclusive: 4.47 µM [inhibitor, full curve, poor fit]
CC(C)Oc1ccc(OCCn2c(=S)[nH]c3c(N)ncnc32)cc1	inactive
CCOC(=O)C1(Cc2cccc(F)c2)CCN(Cc2cn(CC)nc2C)CC1	inconclusive: 3.16 µM [inhibitor, single point]
CCCC(=O)NC(Oc1ccc(OC)cc1)C(Cl)(Cl)Cl (stereo unspecified)	inconclusive: 35.5 µM [inhibitor, single point]
COc1ccccc1N(C)S(=O)(=O)c1ccc(C(=O)N(C)Cc2ccc(OC(F)F)cc2)cc1	active: 11.2 µM

Some of these compounds in order of number of heavy atoms, largest number first.
SMILES	Potency
COc1ccccc1N(C)S(=O)(=O)c1ccc(C(=O)N(C)Cc2ccc(OC(F)F)cc2)cc1	active: 11.2 µM
O=C(CNc1ccccc1)N/N=C/c1cn(-c2ccccc2)nc1-c1ccccc1	inconclusive: 0.282 µM [inhibitor, partial curve, poor fit]
Cc1ccccc1CSCCNC(=O)CN(c1ccc2c(c1)OCO2)S(C)(=O)=O	inactive
CC(C)c1nc(SCC(=O)N2CCCCCC2)c2c(=O)n(C)c(=O)n(C)c2n1	inconclusive: 3.55 µM [inhibitor, partial curve, poor fit]
CCOCCCNC(=O)c1ccc2c(c1)N=C(CC)c1cc(Br)ccc1S2	inconclusive: 0.326 µM [inhibitor, full curve, poor fit]
COCC(C)n1c(C)cc(C(=O)CSc2nnc(-c3ccco3)o2)c1C (stereo unspecified)	inactive
CC(C)Oc1ccc(OCCn2c(=S)[nH]c3c(N)ncnc32)cc1	inactive
CC1Cc2ccccc2N1C(=O)CSc1nc2ccccc2s1 (stereo unspecified)	inactive
CN1CCc2c(sc(/N=C/c3cccs3)c2C(N)=O)C1	inactive
CCCCn1c(-c2nonc2N)nc2ccccc21	inconclusive: 25.9 µM [inhibitor, single point]

Copied from the list:
For Potency, COc1cc(/C=N/NC(=O)c2ccc(O)cc2)ccc1Oc1ccc([N+](=O)[O-])cn1 is listed with inconclusive: 10 µM [activator, single point]
For Potency, CC(C)Oc1ccc(OCCn2c(=S)[nH]c3c(N)ncnc32)cc1 is listed with inactive

(next part)

SMILES	Potency
CCC(=O)Nc1cccc(NC(=S)NC(=O)c2cccs2)c1	inconclusive: 5.62 µM [activator, single point]
Cc1ccc(C)c(NC(=O)Cc2csc(-c3ccccc3)n2)c1	inconclusive: 1 µM [inhibitor, partial curve, poor fit]
COC(=O)c1sc(NC(=S)NC(=O)c2ccccc2F)nc1C	inactive
COc1ccccc1CCCNC(=O)C1CCC(=O)N(CCCN2CCCC2=O)C1 (stereo unspecified)	inactive
COc1ccc2c(c1)cc1n2CCN2CCCN=C12	inactive
COc1ccc(NC(=O)CS(=O)(=O)c2ccc(Br)cc2)cc1	inconclusive: 0.891 µM [inhibitor, partial curve, poor fit]
COC(=O)c1c(NC(=O)Cc2cccs2)sc(C)c1C	inactive
COc1cc(/C=C(\C#N)c2[nH]nc(N)c2C#N)cc(OC)c1O	inconclusive: 32.6 µM [inhibitor, single point]
CCc1ccc2[nH]c(=O)c(C(c3nnnn3Cc3ccco3)N3CCC(C)CC3)cc2c1 (stereo unspecified)	inconclusive: 29.1 µM [inhibitor, single point]
CN1CCN(c2nc3c(c(=O)[nH]c(=O)n3C)n2CCCSc2ncccn2)CC1	inactive
Clc1ccc(-c2csc(=Nc3cccnc3)n2CCCn2ccnc2)cc1Cl	inconclusive: 29.1 µM [inhibitor, single point]
CC1CCCN(c2c3c(nc4ccccc24)CCCC3)C1 (stereo unspecified)	inconclusive: 1.12 µM [inhibitor, full curve, poor fit]
COc1cc(C[C@@H](C)N)c(OC)cc1I	inconclusive: 7.94 µM [inhibitor, partial curve, poor fit]
Cc1cc(C)nc(NNC2=CC(=O)CC(C)(C)C2)n1	inconclusive: 6.31 µM [inhibitor, single point]
COc1ccc(-c2nc(NC(=O)c3ccc(OCC(=O)N4CCOCC4)c(OC)c3)sc2C)cc1	inconclusive: 20 µM [inhibitor, single point]
C=CCNC(=O)[C@H]1C=C(OC)C(=O)C[C@H]2c3ccccc3C[C@]12C	inactive
CS(=O)(=O)N1CCc2cc(S(=O)(=O)N3CCN(Cc4ccc5c(c4)OCO5)CC3)ccc21	inactive
c1ccc(-c2cn(-c3ccccc3)c3ncnc(N4CCCCC4)c23)cc1	inconclusive: 10 µM [inhibitor, partial curve, poor fit]
Cc1ccc2cc(CN(CC3CCCO3)C(=S)NCc3ccco3)c(=O)[nH]c2c1C (stereo unspecified)	active: 0.631 µM
CCOC(=O)C1=C(CC)Nc2ccccc2N/C1=N\S(=O)(=O)c1ccc(C(=O)OCC)cc1	inconclusive: 10 µM [inhibitor, partial curve, poor fit]
C[C@@H](C(=O)NCCc1c[nH]c2ccccc12)[C@@H]1C[C@@]1(C)[C@@H](NC(=O)OCc1ccccc1)c1ccccc1	inconclusive: 20.6 µM [inhibitor, single point]
Cc1ccc(Nc2c([N+](=O)[O-])c(=O)n(C)c3ccccc23)cc1	inconclusive: 11.2 µM [inhibitor, partial curve, poor fit]

SMILES	Potency
COC(=O)[C@@H]1Cc2c([nH]c3ccccc23)C2CCC(=O)N21 (stereo partly specified)	inconclusive: 2.51 µM [inhibitor, partial curve, poor fit]
COc1ccc2cc(C(c3nnnn3C(C)(C)C)N3CCSCC3)c(=O)[nH]c2c1 (stereo unspecified)	inactive
O=C(O)c1cccnc1-c1ncccc1C(=O)O	inconclusive: 0.794 µM [inhibitor, single point]
CCc1ccc(CNC(=O)c2ccc(CSc3nc4ccncc4n3Cc3ccccc3)cc2)cc1	inconclusive: 3.55 µM [inhibitor, partial curve, poor fit]
CCOC(=O)/C(=N\Nc1cc(Cl)ccc1Cl)N1CCOCC1	inconclusive: 0.891 µM [inhibitor, full curve, poor fit]
CC(C)=CCN1CCN(Cc2cccn2-c2ccccn2)CC1CCO (stereo unspecified)	inactive
COc1ccc(C(=O)NCCCCCCNC(=O)c2ccc(OC)cc2)cc1	inactive
Nc1nn(-c2ccccc2)c(N)c1N=Nc1ccccc1F	inconclusive: 1.41 µM [inhibitor, full curve, poor fit]
Cc1nn(-c2cc(N3CCCCC3)ccc2N)c(=O)c2ccccc12	inactive
CC(C)c1nnc(NC(=O)C2CCN(c3cnccn3)CC2)s1	inactive
O=C(CCN1C(=O)C2CC=CCC2C1=O)Nc1cc(C(F)(F)F)ccc1N1CCCC1 (stereo unspecified)	inactive
COc1ccc([N+](=O)[O-])cc1NC(=O)CSCc1ccccc1	inactive
O=C(Nc1ccccc1N1CCN(C(=O)c2ccccc2)CC1)c1cc2ccccc2o1	inconclusive: 2.51 µM [inhibitor, partial curve]
COC(=O)C1CCN(c2c([N+](=O)[O-])cc(C(F)(F)F)cc2[N+](=O)[O-])CC1	inconclusive: 0.0891 µM [activator, full curve, poor fit]
COc1ccc(CNC(=O)Nc2cn(CC(C)C)c(=O)c3ccccc23)c(OC)c1	inconclusive: 7.94 µM [inhibitor, partial curve, poor fit]
Nc1c2c(nc3ccccc13)CCCC2	inconclusive: 28.2 µM [inhibitor, partial curve, poor fit] and inconclusive: 14.6 µM [inhibitor, partial curve, poor fit]
O=C(NC1CCCC1)c1c(O)nc2sccn2c1=O	inconclusive: 6.31 µM [inhibitor, single point]
CCOC(=O)c1sc(NC(=O)CCN2CCN(CC)CC2)c(C(=O)OCC)c1C	inconclusive: 35.5 µM [inhibitor, single point]
Cc1ccc2c(CC(=O)NCC3COc4ccccc4O3)coc2c1 (stereo unspecified)	inconclusive: 0.1 µM [activator, full curve, poor fit]
Cc1ccc(S(=O)(=O)Cn2nnnc2C(CC(C)C)N2CCN(C3CCCC3)CC2)cc1 (stereo unspecified)	inconclusive: 35.5 µM [inhibitor, single point]
COc1cccc(OCc2cc(C(=O)N3CCC(c4ccncc4)CC3)no2)c1	inconclusive: 10 µM [inhibitor, partial curve, poor fit]
O=C(N/N=C/c1ccccc1O)NC12CC3CC(CC(C3)C1)C2	inconclusive: 3.55 µM [activator, single point]
